Drawing on PMC3024417, this text covers binding for five molecules.

Amino acid sequences for entries named in this document (tags omitted). A change or cut given only in a name is not applied to a line headed by its entry.
UniProt O95831: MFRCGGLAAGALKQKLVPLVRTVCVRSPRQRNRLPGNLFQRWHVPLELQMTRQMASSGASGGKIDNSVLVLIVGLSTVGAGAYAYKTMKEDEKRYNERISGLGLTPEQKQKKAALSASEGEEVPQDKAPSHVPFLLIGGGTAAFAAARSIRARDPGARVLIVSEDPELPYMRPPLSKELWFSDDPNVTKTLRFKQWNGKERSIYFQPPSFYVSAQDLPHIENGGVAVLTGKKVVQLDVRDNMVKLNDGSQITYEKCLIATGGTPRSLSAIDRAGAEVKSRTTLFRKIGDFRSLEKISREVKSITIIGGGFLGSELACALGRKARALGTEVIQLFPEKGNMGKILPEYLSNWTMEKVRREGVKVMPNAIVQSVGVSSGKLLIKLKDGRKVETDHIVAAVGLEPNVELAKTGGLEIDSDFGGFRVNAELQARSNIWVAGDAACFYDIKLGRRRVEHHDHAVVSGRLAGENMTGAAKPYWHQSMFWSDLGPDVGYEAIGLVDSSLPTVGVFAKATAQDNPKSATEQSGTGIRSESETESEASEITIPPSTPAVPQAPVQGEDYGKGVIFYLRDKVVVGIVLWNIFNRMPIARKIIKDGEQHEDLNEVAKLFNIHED
UniProt Q13439: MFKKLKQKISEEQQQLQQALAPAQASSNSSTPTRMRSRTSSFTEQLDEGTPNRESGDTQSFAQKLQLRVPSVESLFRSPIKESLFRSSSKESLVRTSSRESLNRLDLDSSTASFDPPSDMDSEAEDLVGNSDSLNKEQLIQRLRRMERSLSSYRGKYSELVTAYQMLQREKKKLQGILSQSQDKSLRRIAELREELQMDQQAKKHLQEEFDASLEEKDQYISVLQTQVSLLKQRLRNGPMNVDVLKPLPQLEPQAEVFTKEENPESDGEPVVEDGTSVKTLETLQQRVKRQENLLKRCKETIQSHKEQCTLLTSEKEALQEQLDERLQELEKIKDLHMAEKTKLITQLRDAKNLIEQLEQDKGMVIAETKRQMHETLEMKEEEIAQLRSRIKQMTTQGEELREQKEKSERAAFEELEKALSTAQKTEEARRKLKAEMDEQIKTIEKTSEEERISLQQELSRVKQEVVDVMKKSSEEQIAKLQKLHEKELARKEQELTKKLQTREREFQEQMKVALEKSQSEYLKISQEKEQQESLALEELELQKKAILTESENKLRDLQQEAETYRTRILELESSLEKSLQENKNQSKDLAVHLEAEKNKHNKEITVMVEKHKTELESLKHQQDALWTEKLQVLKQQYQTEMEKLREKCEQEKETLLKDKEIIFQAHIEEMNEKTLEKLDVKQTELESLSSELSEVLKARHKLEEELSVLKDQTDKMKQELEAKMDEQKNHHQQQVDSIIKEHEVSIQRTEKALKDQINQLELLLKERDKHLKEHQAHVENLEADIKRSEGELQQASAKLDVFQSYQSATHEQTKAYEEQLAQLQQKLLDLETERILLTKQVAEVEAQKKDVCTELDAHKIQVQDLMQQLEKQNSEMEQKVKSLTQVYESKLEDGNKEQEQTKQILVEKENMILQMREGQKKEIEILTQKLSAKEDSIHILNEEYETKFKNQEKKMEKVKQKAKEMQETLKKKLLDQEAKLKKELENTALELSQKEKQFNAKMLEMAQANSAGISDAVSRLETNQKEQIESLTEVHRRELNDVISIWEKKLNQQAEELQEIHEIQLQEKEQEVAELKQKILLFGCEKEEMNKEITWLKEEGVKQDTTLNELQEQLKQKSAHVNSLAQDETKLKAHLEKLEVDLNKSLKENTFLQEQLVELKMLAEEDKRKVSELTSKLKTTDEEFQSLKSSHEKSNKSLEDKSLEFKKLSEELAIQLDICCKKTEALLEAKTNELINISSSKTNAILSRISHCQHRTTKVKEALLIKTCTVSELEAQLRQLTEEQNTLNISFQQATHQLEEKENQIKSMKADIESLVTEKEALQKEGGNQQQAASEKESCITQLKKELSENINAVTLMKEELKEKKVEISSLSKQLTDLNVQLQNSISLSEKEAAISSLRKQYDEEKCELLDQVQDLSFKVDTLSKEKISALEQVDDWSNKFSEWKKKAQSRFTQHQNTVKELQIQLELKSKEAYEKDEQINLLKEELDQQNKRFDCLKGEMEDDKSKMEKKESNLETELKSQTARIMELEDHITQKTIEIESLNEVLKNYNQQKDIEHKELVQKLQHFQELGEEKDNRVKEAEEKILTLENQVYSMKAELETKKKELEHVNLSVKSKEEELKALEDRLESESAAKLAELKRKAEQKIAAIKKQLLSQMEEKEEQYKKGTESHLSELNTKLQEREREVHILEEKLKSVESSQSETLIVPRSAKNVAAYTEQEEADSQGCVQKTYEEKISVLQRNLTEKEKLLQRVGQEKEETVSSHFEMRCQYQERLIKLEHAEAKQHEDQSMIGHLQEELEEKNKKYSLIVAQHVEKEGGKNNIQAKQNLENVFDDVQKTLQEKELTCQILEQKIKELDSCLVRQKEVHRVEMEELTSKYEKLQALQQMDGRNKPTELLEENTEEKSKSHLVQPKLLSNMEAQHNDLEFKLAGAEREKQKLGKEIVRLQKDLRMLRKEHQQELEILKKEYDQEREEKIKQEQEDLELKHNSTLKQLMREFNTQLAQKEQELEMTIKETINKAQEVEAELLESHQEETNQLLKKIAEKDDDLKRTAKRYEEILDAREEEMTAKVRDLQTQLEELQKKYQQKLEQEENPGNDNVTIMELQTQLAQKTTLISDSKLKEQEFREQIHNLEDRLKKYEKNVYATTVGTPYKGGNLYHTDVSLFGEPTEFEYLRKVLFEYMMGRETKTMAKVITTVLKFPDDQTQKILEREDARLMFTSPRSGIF
UniProt P15311: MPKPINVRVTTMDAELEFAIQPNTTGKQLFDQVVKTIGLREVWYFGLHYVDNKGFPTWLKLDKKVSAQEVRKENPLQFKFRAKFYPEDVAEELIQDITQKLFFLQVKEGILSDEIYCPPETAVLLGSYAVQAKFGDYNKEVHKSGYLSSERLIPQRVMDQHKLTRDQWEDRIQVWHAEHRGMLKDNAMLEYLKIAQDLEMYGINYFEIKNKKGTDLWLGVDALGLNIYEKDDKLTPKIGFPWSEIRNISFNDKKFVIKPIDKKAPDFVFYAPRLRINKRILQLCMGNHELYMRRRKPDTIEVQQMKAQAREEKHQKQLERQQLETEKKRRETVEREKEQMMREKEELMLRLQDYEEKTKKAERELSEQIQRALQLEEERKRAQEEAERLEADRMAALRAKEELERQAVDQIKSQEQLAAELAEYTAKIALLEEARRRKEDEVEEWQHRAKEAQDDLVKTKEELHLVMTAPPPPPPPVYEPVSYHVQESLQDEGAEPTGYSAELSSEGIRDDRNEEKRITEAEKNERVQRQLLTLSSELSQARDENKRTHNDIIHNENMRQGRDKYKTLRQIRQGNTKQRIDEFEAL

Experiment [1] deals with T1, p120-catenin (human (endogenous in A431)) (UniProt O60716).
T1 sequence: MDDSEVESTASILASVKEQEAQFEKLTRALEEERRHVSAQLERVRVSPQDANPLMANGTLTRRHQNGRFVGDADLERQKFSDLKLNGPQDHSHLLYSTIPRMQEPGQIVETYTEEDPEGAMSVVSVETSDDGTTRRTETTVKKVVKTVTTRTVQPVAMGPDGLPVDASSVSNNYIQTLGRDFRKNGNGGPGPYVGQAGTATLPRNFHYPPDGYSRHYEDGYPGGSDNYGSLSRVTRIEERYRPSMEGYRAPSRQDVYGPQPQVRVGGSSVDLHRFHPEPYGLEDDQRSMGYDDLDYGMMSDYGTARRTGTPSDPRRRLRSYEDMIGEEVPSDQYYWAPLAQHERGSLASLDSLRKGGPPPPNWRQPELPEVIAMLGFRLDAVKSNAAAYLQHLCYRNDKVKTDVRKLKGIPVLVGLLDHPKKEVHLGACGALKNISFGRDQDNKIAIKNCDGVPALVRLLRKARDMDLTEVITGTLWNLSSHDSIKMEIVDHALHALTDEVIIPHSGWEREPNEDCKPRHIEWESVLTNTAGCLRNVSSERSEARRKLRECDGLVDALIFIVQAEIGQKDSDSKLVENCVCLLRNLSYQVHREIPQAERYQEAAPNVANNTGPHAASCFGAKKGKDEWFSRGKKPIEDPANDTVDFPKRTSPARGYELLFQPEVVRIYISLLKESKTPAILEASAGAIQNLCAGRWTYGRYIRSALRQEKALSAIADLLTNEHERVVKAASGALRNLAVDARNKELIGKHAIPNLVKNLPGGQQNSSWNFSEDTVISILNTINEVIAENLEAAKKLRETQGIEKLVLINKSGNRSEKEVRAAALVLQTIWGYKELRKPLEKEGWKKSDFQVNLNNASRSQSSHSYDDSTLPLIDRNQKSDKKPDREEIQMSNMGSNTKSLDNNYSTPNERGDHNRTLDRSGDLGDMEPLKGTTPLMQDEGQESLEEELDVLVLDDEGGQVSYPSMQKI
Put plainly: cross-linking + affinity purification with mass spectrometry; ReCLIP: A431 cells crosslinked with 0.5 mM DSP, DTME or both, RIPA lysis; p120 captured on mAb 15D2 Dynabeads; DTT eluate analysed by LC-MS/MS; control mAb 8D11 beads.

Experiment [2] addresses T1, p120-catenin (human (endogenous in A431)). The experiment is described as above. The source holds these as a separate data set.

Where two headings read alike, the source gives them in different places. Results are given in words; binding and its absence hold for the method and conditions named. Binding seen in cells or lysates may run through a third protein. These calls come from enrichment with a bait or labelling near it, and not all partners need be listed.

As for AIFM1 (from UniProt O95831), in experiment [1], the binding result is “binds”.

E-cadherin (human (endogenous in A431)): the binding result in experiment [1] is given as “binds”.

Take GOLGA4 (from UniProt Q13439 1-2230): the binding entry in experiment [1] is “binds”.

“Villin-2/Ezrin (from UniProt P15311 1-586)”: the binding result in experiment [1] is “binds”.

B1: Plakoglobin (protein, UniProt P14923 1-745)
chain: MEVMNLMEQPIKVTEWQQTYTYDSGIHSGANTCVPSVSSKGIMEEDEACGRQYTLKKTTTYTQGVPPSQGDLEYQMSTTARAKRVREAMCPGVSGEDSSLLLATQVEGQATNLQRLAEPSQLLKSAIVHLINYQDDAELATRALPELTKLLNDEDPVVVTKAAMIVNQLSKKEASRRALMGSPQLVAAVVRTMQNTSDLDTARCTTSILHNLSHHREGLLAIFKSGGIPALVRMLSSPVESVLFYAITTLHNLLLYQEGAKMAVRLADGLQKMVPLLNKNNPKFLAITTDCLQLLAYGNQESKLIILANGGPQALVQIMRNYSYEKLLWTTSRVLKVLSVCPSNKPAIVEAGGMQALGKHLTSNSPRLVQNCLWTLRNLSDVATKQEGLESVLKILVNQLSVDDVNVLTCATGTLSNLTCNNSKNKTLVTQNSGVEALIHAILRAGDKDDITEPAVCALRHLTSRHPEAEMAQNSVRLNYGIPAIVKLLNQPNQWPLVKATIGLIRNLALCPANHAPLQEAAVIPRLVQLLVKAHQDAQRHVAAGTQQPYTDGVRMEEIVEGCTGALHILARDPMNRMEIFRLNTIPLFVQLLYSSVENIQRVAAGVLCELAQDKEAADAIDAEGASAPLMELLHSRNEGTATYAAAVLFRISEDKNPDYRKRVSVELTNSLFKHDPAAWEAAQSMIPINEPYGDDMDATYRPMYSSDVPLDPLEMHMDMDGDYPIDTYSDGLRPPYPTADHMLA
As to B1, the binding result in experiment [2] is listed as “binds”.
